Reference: patent publication US6686353B1, “Diarylalkyl cyclic diamine derivatives as chemokine receptor antagonists” (Teijin Intellectual Property Center Limited, priority 1996, dated 2004)
Some of these results come from one statement about several compounds together.

target: T1, human MCP-1 binding to THP-1 cells (Homo sapiens, UniProt P41597); test: Inhibition of [125I]-labeled human MCP-1 binding to THP-1 cells; details: at 100 μM test compound
T1 construct: endogenous in cells; host or cells: THP-1 (human monocytic leukemia cell line), whole cells
T1 sequence (P41597 1-360 isoform P41597-2): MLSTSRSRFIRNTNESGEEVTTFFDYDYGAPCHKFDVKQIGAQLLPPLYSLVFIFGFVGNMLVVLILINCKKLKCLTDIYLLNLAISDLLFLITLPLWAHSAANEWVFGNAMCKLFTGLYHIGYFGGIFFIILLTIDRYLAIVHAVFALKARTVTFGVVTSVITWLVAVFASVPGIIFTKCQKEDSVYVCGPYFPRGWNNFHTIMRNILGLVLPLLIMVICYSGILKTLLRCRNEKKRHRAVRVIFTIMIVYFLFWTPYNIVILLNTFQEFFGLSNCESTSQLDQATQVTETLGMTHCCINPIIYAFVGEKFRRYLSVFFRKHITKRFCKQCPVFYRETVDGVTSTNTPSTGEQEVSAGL
Excerpt: Measurement of Inhibition of MCP-1 Binding to TP-1 Cells
1. Construction of Recombinant Baculovirus Carrying the Human MCP-1 Gene
Based on the previously published human MCP-1 gene sequence (for example T. Yoshimura et al., Febs Letters, 1989, 244, 487-493), two synthetic DNA primers (5′-[…]-3′ and 5′-[…]-3′) flanked by restriction enzyme sites were used to amplify a DNA fragment from cDNA derived from human endothelial cells (purchased from Kurabow Co.); the amplified fragment was cut with the restriction enzymes (PstI and XbaI), ligated into a transfer vector pVL1393 (Invitrogen Co.), and the resulting vector was co-transfected along with infectious baculovirus into Sf-9 insect cells and the supernatant was plaque assayed to yield human MCP-1 gene baculovirus recombinant.
2. Synthesis of [^125I]-labeled Human MCP-1 Expressed in Baculovirus
Using the method of K. Ishii et al. (Biochem Biophys Research Communications 1995, 206, 955-961), 5×10^6 Sf-6 insect cells was infected with 5×10^7 PFU (plaque forming units) of the above human MCP-1 recombinant baculovirus and cultured for 7 days in Ex-Cell 401 medium. The culture supernatant was affinity purified using a heparin Sepharose column (Pharmacia Co.) and then further purified using reverse phase HPLC (Vydac C18 column) to prepare purified human MCP-1. The purified human MCP-1 was protein labeled by Amersham Co. using the Bolton Hunter method to yield [^125I]-labeled baculovirus expressed human MCP-1 (specific activity 2000 Ci/mmol).
3. Measurement of Inhibition of Binding of [^125I]-labeled Baculovirus Expressed Human MCP-1 to THP-1 Cells
Human monocytic leukemia cell line THP-1 was suspended in assay buffer (RPMI-1640 (Gibco-BRL Co.) containing 0.1% BSA and 25 mM HEPES adjusted to pH 7.4) to give a cell suspension of a concentration of 1×10^7 cells/mL. The test compound was diluted in the assay buffer and used as the test compound solution. [^125I]-labeled human MCP-1 described above was diluted in assay buffer to 1 mCi/mL and used as the labeled ligand solution. In a 96 well filter plate (Millipore Co.), 25 μL of test compound solution, 25 μL of labeled ligand solution and 50 μL of cell suspension were aliquoted into each well in this order, stirred (total reaction volume 100 μL), and incubated for one hour at 18° C.
After the reaction, the reaction solution was filtered, and the filter was washed twice with 200 μL of cold PBS (200 μL of cold PBS was added and then filtered). The filter was removed and placed in an RIA tube (Iuchi Seieido Co.,), and the radioactivity retained by the cells on the filter were measured using a gamma counter (Aloka Co.).
To calculate the ability of test compound to inhibit binding of human MCP-1 to THP-1 cells, non-specific binding determined by adding 100 ng of unlabeled human MCP-1 in place of the test compound was subtracted, while the counts with no test compound added was taken as 100%.
Inhibition (%)=(1−(A−B)/(C−B))×100
(A, counts with test compound added; B, counts with 100 ng of unlabeled human […] added; C, counts with [^125I]-labeled human MCP-1 added).

Structure (SMILES)	inhibitory activity (inhibition of human MCP-1 binding to THP-1 cells)
Cc1csc(C(=O)NNC(=O)CN2CCCN(CCC(c3ccccc3)c3cccc(O)c3)CC2)c1 (stereo not shown) [Compound No. 257]	> 20%
Cc1csc(C(=O)NNC(=O)CN2CCCN(CCC(O)(c3ccccc3)c3cccc(O)c3)CC2)c1.O=C(O)C(F)(F)F.O=C(O)C(F)(F)F (stereo not shown) [Compound No. 259]	> 20%
O=C(CN1CCCN(CCC(O)(c2ccccc2)c2cccc(O)c2)CC1)NNC(=O)c1cc(Cl)nc(Cl)c1 (stereo not shown) [Compound No. 261]	> 20%
O=C(CCCN1CCCN(CCC(O)(c2ccccc2)c2cccc(O)c2)CC1)c1cccs1.O=C(O)C(F)(F)F (stereo not shown) [Compound No. 263]	> 20%
CCNC(=O)CN1CCCN(CCC(c2ccccc2)c2ccccc2)CC1 [Compound No. 267]	> 20%
CCCN(CCC)C(=O)CN1CCCN(CCC(c2ccccc2)c2ccccc2)CC1 [Compound No. 271]	> 20%
COC(=O)CNC(=O)CN1CCCN(CCC(c2ccccc2)c2ccccc2)CC1 [Compound No. 272]	> 20%
NC(=O)CNC(=O)CN1CCCN(CCC(c2ccccc2)c2ccccc2)CC1 [Compound No. 273]	> 20%
CC(C)(C)OC(=O)CNC(=O)CN1CCCN(CCC(c2ccccc2)c2ccccc2)CC1 [Compound No. 274]	> 20%
O=C(CN1CCCN(CCC(c2ccccc2)c2ccccc2)CC1)NC(CO)c1ccccc1 (stereo not shown) [Compound No. 275]	> 20%
COCC(NC(=O)CN1CCCN(CCC(c2ccccc2)c2ccccc2)CC1)C(O)c1ccccc1 (stereo not shown) [Compound No. 279]	> 20%
O=C(CN1CCCN(CCC(c2ccccc2)c2ccccc2)CC1)NCC(O)c1ccccc1 (stereo not shown) [Compound No. 281]	> 20%
O=C(CN1CCCN(CCC(c2ccccc2)c2ccccc2)CC1)NC(CO)Cc1ccccc1 (stereo not shown) [Compound No. 282]	> 20%
O=C(CN1CCCN(CCC(c2ccccc2)c2ccccc2)CC1)NC(CO)CO [Compound No. 298]	> 20%
O=C(CN1CCCN(CCC(c2ccccc2)c2ccccc2)CC1)NC(c1ccccc1)C(O)c1ccccc1 (stereo not shown) [Compound No. 299]	> 20%
CS(=O)(=O)c1ccc(CN2CCCN(CCC(c3ccccc3)c3ccccc3Cl)CC2)cc1 (stereo not shown) [compound 51]	> 20%
CS(=O)(=O)c1ccc(CN2CCCN(CCC(c3ccc(Cl)cc3)c3ccc(Cl)cc3)CC2)cc1 [compound 56]	> 20%
CS(=O)(=O)c1ccc(CN2CCCN(CCC(c3ccccc3)c3cccc(O)c3)CC2)cc1 (stereo not shown) [compound 58]	> 20%
NS(=O)(=O)c1ccc(CN2CCCN(CCC(c3ccccc3)c3ccccc3)CC2)cc1 [compound 61]	> 20%
CS(=O)(=O)c1ccc(CN2CCCN(CCC(c3ccc(O)cc3)c3ccc(O)cc3)CC2)cc1 [compound 67]	> 20%
CS(=O)(=O)c1ccc(CN2CCCN(CCC(c3cccc(O)c3)c3cccc(O)c3)CC2)cc1 [compound 68]	> 20%
CS(=O)(=O)c1ccc(CN2CCCN(CCC(c3ccccc3)c3ccc(C(=O)O)cc3)CC2)cc1 (stereo not shown) [compound 73]	> 20%

Structure (SMILES)	inhibitory activity (inhibition of human MCP-1 binding to THP-1 cells)
COC(CCN1CCCN(Cc2ccc(S(C)(=O)=O)cc2)CC1)(c1ccccc1)c1ccccc1 [compound 103]	> 20%
COC(CCN1CCCN(Cc2ccc(S(C)(=O)=O)cc2)CC1)(c1cccc(O)c1)c1cccc(O)c1 [compound 104]	> 20%
CS(=O)(=O)c1ccc(CN2CCCN(CCC(O)(c3cccc(O)c3)c3cccc(O)c3)CC2)cc1 [compound 114]	> 20%
CC(C)(C)c1ccc(C(O)(CCN2CCCN(Cc3ccc(S(C)(=O)=O)cc3)CC2)c2ccc(C(C)(C)C)cc2)cc1 [compound 116]	> 20%
CS(=O)(=O)c1ccc(CN2CCCN(CCC(O)(c3ccc(C(F)(F)F)cc3)c3ccc(C(F)(F)F)cc3)CC2)cc1 [compound 117]	> 20%
CN(C)c1ccc(C(O)(CCN2CCCN(Cc3ccc(S(C)(=O)=O)cc3)CC2)c2ccc(N(C)C)cc2)cc1 [compound 121]	> 20%
CS(=O)(=O)c1ccc(CN2CCCN(CCC(O)(c3ccc4c(c3)OCO4)c3ccc4c(c3)OCO4)CC2)cc1 [compound 122]	> 20%
Cn1cccc1C(O)(CCN1CCCN(Cc2ccc(S(C)(=O)=O)cc2)CC1)c1cccn1C [compound 124]	> 20%
CS(=O)(=O)c1ccc(CN2CCCN(CCC(O)(c3cccs3)c3cccs3)CC2)cc1 [compound 126]	> 20%
CS(=O)(=O)c1ccc(CN2CCCN(CCC(O)(c3ccsc3)c3ccsc3)CC2)cc1 [compound 128]	> 20%
CS(=O)(=O)c1ccc(CN2CCCN(CCC(O)(c3ccccc3)c3cccc(O)c3)CC2)cc1 (stereo not shown) [compound 131]	> 20%
CS(=O)(=O)c1ccc(CN2CCCN(CCC(O)(c3ccccc3)c3cccc(F)c3)CC2)cc1 (stereo not shown) [compound 132]	> 20%
COc1cccc(C(O)(CCN2CCCN(Cc3ccc(S(C)(=O)=O)cc3)CC2)c2ccccc2)c1 (stereo not shown) [compound 133]	> 20%
Cc1cccc(C(O)(CCN2CCCN(Cc3ccc(S(C)(=O)=O)cc3)CC2)c2ccccc2)c1 (stereo not shown) [compound 134]	> 20%
CS(=O)(=O)c1ccc(CN2CCCN(CCC(O)(c3ccccc3)c3cccc(CO)c3)CC2)cc1 (stereo not shown) [compound 135]	> 20%
CS(=O)(=O)c1ccc(CN2CCCN(CCC(O)(c3ccc(F)cc3)c3cccc(O)c3)CC2)cc1 (stereo not shown) [compound 137]	> 20%
CS(=O)(=O)c1ccc(CN2CCCN(CCC(O)(c3cccc(O)c3)c3cccc(C4OCCO4)c3)CC2)cc1 (stereo not shown) [compound 139]	> 20%
CS(=O)(=O)c1ccc(CN2CCCN(CCC(O)(c3ccccc3)c3cccc(OC(F)(F)F)c3)CC2)cc1 (stereo not shown) [compound 140]	> 20%
COc1ccc(C(O)(CCN2CCCN(Cc3ccc(S(C)(=O)=O)cc3)CC2)c2ccccc2)c(OC)c1 (stereo not shown) [compound 141]	> 20%
COc1cc(OC)cc(C(O)(CCN2CCCN(Cc3ccc(S(C)(=O)=O)cc3)CC2)c2ccccc2)c1 (stereo not shown) [compound 142]	> 20%
C=CCN(C)c1cccc(C(O)(CCN2CCCN(Cc3ccc(S(C)(=O)=O)cc3)CC2)c2ccccc2)c1 (stereo not shown) [compound 143]	> 20%
